# According to PubChem BioAssay AID1487 (National Center for Advancing Translational Sciences (NCATS), 2009):
# Hit rate of the full screen: of about 200,000 compounds, about 25 (0.01%) were called active. The shares of active, inactive and inconclusive entries below differ from those in the screen. Calls come from the whole dose curve; as a rule, active = well fitted inhibition curve with a large enough effect in the signal ratio, with a control signal flat (not every such curve was filed as active); inconclusive = small, poorly fitted or top-dose-only effect, or effect the other way, or a change in a side signal; inactive = flat fitted curve, though single readings scatter; the % refers to the signal ratio. Potencies beside an inconclusive call are fits to weak or partial responses and may not hold up.
# Experiment: qHTS Assay for Modulators of Lamin A Splicing
# Details: HeLa LMNA splicing GFP/RFP minigene ratio, 48 h; ratio change, negative = inhibition: at 46.1 µM (top of the series) unless noted
# Method in brief: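 S3 HeLa stable clones carrying a lamin A-EGFP splicing minigene plus DsRed2 were seeded at 600 cells/well in Opti-MEM with 2% FBS, pin-dosed and incubated 48 h at 37°C. Acumen cytometry (488 nm) gave the GFP/RFP total-intensity ratio.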
# % is set by controls: 0 for no effect and ±100 for the full control effect; potency is the fitted concentration of half-maximal effect.
SMILES,"ratio change, negative = inhibition",Potency
Cc1ccc(C(=O)NCCSc2snnc2C)cc1,inactive: 0.56%,–
CCOC(=O)c1sc(=NC(=O)c2ccc(OC(C)C)cc2)n(C)c1C,inconclusive: 12.9% [at 46 µM],–
CN1CCN(CC(=O)N/N=C/c2ccc(F)c(F)c2)CC1,inactive: -7.93%,–
COC(=O)c1cc(-c2ccccc2)sc1NC(=O)CN1C(=O)c2ccccc2C1=O,inactive: -9.38%,–
O=C(NNC(=O)c1c(F)cccc1F)c1ccccc1-n1cccc1,–,"inconclusive: 2.51 µM [activator, partial curve]"
CCN(CC)c1ccc(C(=O)OCc2c(C)noc2C)cc1,inactive: -16.8% [at 46 µM],–
Cc1ccc(-n2cccc2/C=C2/C(=N)N3C(=NC2=O)SN=C3S(C)(=O)=O)cc1,inconclusive: 8.4% [at 46 µM],–
CCOC(=O)/C(=N\Nc1ccccc1Cl)N1CCN(c2ccccc2OC)CC1,inconclusive: -19% [at 46 µM],–
COc1cc(Cl)c(C)cc1NC(=O)c1c(C)oc2nc(C)nc(N3CCCC3)c12,inactive: -4.77% [at 46 µM],–
CCc1nnc(NC(=O)CSc2nccn2Cc2ccccc2)s1,inconclusive: -4.03% [at 46 µM],–
CCOC(=O)N1CCN(C/C(C)=C/c2ccccc2)CC1,inactive: 13.4%,–
C/C(=N\NC(=O)c1cc(C(C)C)[nH]n1)c1ccco1,inconclusive: -2.77%,–
CCN1CNC(=S)N(C(C)c2ccccc2)C1 (centres undefined),inactive: -13.4%,–
Cc1cc(-n2c(SCc3ccccc3F)nc3[nH]ncc3c2=O)ccc1Cl,inconclusive: 78.9% [at 46 µM],–
O=C(c1cccnc1)N1CCc2ccccc2C1,inactive: 5.18%,–
COc1ccc(NC(=O)CSc2ccccc2)cc1S(=O)(=O)N1CCCCC1,–,"inconclusive: 35.5 µM [fluorescent, single point]"
CCOc1ccccc1NC(=O)C(NS(=O)(=O)c1cccc2nsnc12)c1ccccc1 (centres undefined),inactive: 10.7% [at 46 µM],–
Cc1cc(NC(=O)C2CCN(S(=O)(=O)Cc3ccccc3)CC2)ccc1-n1cnnn1,–,"inconclusive: 35.5 µM [falling, single point]"
Nc1cc(N)nc(SCC(=O)N2CCN(C(=O)c3ccco3)CC2)n1,inactive: 9.6%,–
CCOC(=O)Cn1c(=O)cc(-c2ccccc2)c2c(C)nn(C)c21,inactive: -3.82% [at 46 µM],–
CC(=O)Oc1ccc(Oc2ccc(-c3noc(C)n3)cc2)cc1,–,"inconclusive: 14.1 µM [falling, partial curve]"
Cc1ccccc1CSc1nc2nc(C)c(Cc3ccccc3)c(C)n2n1,inconclusive: -3.78% [at 46 µM],–
CCN1CCS/C1=C\C=C\C1=[N+](CC)CCS1,inconclusive: -11% [at 9.22 µM],–
COc1ccccc1CNc1ncncc1-c1ccccc1Cl,inconclusive: -13.8%,–
Cc1cc(C)nc(NC(N)=NC(C)c2ccccc2)n1 (centres undefined),–,"inconclusive: 10 µM [inhibitor, single point]"
c1ccc(SCc2nc3ccccc3[nH]2)cc1,inactive: 7.61%,–
Cc1cc(NC(=O)CSc2cn(CCNC(=O)c3ccc(Cl)cc3)c3ccccc23)no1,–,"inconclusive: 12.6 µM [falling, single point]"

# 5 entries drawn at random from the list so far:
SMILES,"ratio change, negative = inhibition",Potency
Cc1cc(NC(=O)CSc2cn(CCNC(=O)c3ccc(Cl)cc3)c3ccccc23)no1,–,"inconclusive: 12.6 µM [falling, single point]"
COc1ccc(NC(=O)CSc2ccccc2)cc1S(=O)(=O)N1CCCCC1,–,"inconclusive: 35.5 µM [fluorescent, single point]"
Cc1ccc(C(=O)NCCSc2snnc2C)cc1,inactive: 0.56%,–
Cc1cc(NC(=O)C2CCN(S(=O)(=O)Cc3ccccc3)CC2)ccc1-n1cnnn1,–,"inconclusive: 35.5 µM [falling, single point]"
Cc1ccccc1CSc1nc2nc(C)c(Cc3ccccc3)c(C)n2n1,inconclusive: -3.78% [at 46 µM],–

# (more compounds)

SMILES,"ratio change, negative = inhibition",Potency
Cc1cc(Nc2ccc(Cl)cc2)n(-c2ccccc2)n1,inactive: -9.99%,–
CC(C)(C)C(=O)Nc1ccc2nc(SCC(=O)N3CCCC3)sc2c1,inconclusive: 7.79% [at 46 µM],–
Brc1ccc2nc(N3CCCC3)sc2c1,inconclusive: 11.2% [at 9.22 µM],–
CC(C)Oc1ccc(CNC(=O)c2ccc(NC(=O)c3nsc4ccccc34)cc2)cc1,inconclusive: 5.24% [at 46 µM],–
CCN(CCCNC(=O)c1cc2cc3cc(C)ccc3nc2s1)c1cccc(C)c1,inconclusive: -10.7% [at 46 µM],–
NCC1CCC(C(=O)Oc2ccc(CCC(=O)O)cc2)CC1 (centres undefined),inconclusive: 8.21%,–
O=[N+]([O-])c1ccc(COc2ccc(-c3[nH]ncc3-c3ccccc3)c(O)c2)cc1,–,"inconclusive: 28.2 µM [inhibitor, single point]"
CCCn1c(=O)c(/C(N)=N/O)nn(-c2cccc(C(F)(F)F)c2)c1=O,inconclusive: 6.18% [at 46 µM],–
O=C(CSc1nc2ccccc2c(=O)n1CCC(=O)N1CCCCC1)NCc1ccccc1,inactive: -2.68%,–
COC(=O)/C=C/C(=O)N1CCN(c2cccc(Cl)c2)CC1,inconclusive: -9.68%,–
CCOc1c(Cl)cc(CNCc2ccncc2)cc1OC,inconclusive: -27.1% [at 46 µM],–
CN(C)S(=O)(=O)c1cc(C(=O)NCc2ccccc2)c(Cl)cc1Cl,inconclusive: 1.36% [at 46 µM],–
O=C(CSc1nccn1-c1ccc(Cl)cc1)Nc1nc2ccccc2s1,inconclusive: -2.33% [at 46 µM],–
c1ccc2c(N3CCCCCC3)nc(-c3ccncc3)nc2c1,–,"inconclusive: 25.1 µM [fluorescent, single point]"
Cc1cc(C)nc(SCC(=O)N2CCOCC2)n1,inactive: 2.02%,–
COc1cccc(NC(=O)Cn2c(=O)n(CCC(=O)NCc3ccco3)c(=O)c3ccccc32)c1,inactive: -5.98% [at 46 µM],–
O=C(Cc1nc(-c2ccc([N+](=O)[O-])cc2)cs1)Nc1ccccc1,inactive: -4.49%,–
COc1ccc(N2CCN(C(=O)c3ccc4c(=O)n(CC5CCCO5)c(=O)[nH]c4c3)CC2)cc1 (centres undefined),inactive: -2.64%,–
CCN(CC)CC(=O)Nc1ccc2c(c1)Nc1ccccc1CC2,inconclusive: -15.8%,–
OCCN1CCN(c2nc3ccccc3nc2-c2ccccc2)CC1,inconclusive: -9.1% [at 46 µM],–
CCc1cccc(CC)c1NC(=O)c1cc(S(=O)(=O)N2CCc3ccccc32)cn1C,inactive: -17.9% [at 46 µM],–
CC1C(=O)NN=C1C(=O)N/N=C/c1ccco1 (centres undefined),inconclusive: -10.9% [at 46 µM],–
Cc1cccc(NC(=O)c2cc(Cl)sc2Cl)c1C,inconclusive: 0.0325%,–
Cc1ccc(S(=O)(=O)N(C)CC(=O)N2CCCc3ccccc32)cc1,inconclusive: 6.07%,–
Cc1cccc(N2CC(C(=O)OCc3ccc([N+](=O)[O-])cc3)CC2=O)c1 (centres undefined),inconclusive: 7.67% [at 46 µM],–
O=C(Cn1c(=O)nc(-c2ccccc2)c2cc(Cl)ccc21)NCc1ccccc1,inactive: 4.48% [at 46 µM],–
S=c1[nH]nc(CCc2ccccc2)n1Cc1ccccc1,inconclusive: 126%,–
